Taken from: PubChem BioAssay AID1259254 (NCATS, 2017)
Screen: 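Gene knock-downs that lead to re-replication, shown by excess G2 DNA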 (primary screen). Cell system: human HCT116 colorectal cancer cells. Reagents: single siRNA against human genes. Timing: 3 days. Read-out: 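Imaged Hoechst DNA stain sorts each cell into a cycle phase by DNA amount; per plate, G2 fraction set to 0% for non-targeting and 100% for GMNN siRNA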. Scale: G2 robust z-score and G2 cells, % of GMNN control: higher = more G2 cells, more excess DNA replication. Call rule: 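Active siRNAs have a G2 robust z of 5 or more median absolute deviations over the median, which in these data means about 38% or higher of GMNN control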.
Shown is an unselected part of about 59,000 reagents. Over the whole deposit, about 1,550 (2.6%) got an active call. 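G2 share is only a proxy for re-replication; each gene was hit by three separate siRNAs, and active genes were retested.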 Entries without a mark were called inactive. Reagents against one gene are numbered here. Not all columns of the deposit are shown. Not stated in the record: the amount of reagent.

{"gene": "G6PC3", "reagent": 1, "G2 robust z-score": 1.63, "G2 cells, % of GMNN control": 14.4}
{"gene": "G6PC3", "reagent": 2, "G2 robust z-score": 2.77, "G2 cells, % of GMNN control": 22.5}
{"gene": "G6PC3", "reagent": 3, "G2 robust z-score": 0.126, "G2 cells, % of GMNN control": 3.85}
{"gene": "LOC728667", "reagent": 1, "G2 robust z-score": 0.176, "G2 cells, % of GMNN control": 4.2}
{"gene": "LOC728667", "reagent": 2, "G2 robust z-score": -0.445, "G2 cells, % of GMNN control": -0.161}
{"gene": "LOC728667", "reagent": 3, "G2 robust z-score": -1.03, "G2 cells, % of GMNN control": -4.25}
{"gene": "SLC22A24", "reagent": 1, "G2 robust z-score": -0.164, "G2 cells, % of GMNN control": 1.81}
{"gene": "SLC22A24", "reagent": 2, "G2 robust z-score": 1.69, "G2 cells, % of GMNN control": 14.8}
{"gene": "SLC22A24", "reagent": 3, "G2 robust z-score": 0.832, "G2 cells, % of GMNN control": 8.82}
{"gene": "PCGF6", "reagent": 1, "G2 robust z-score": -0.0343, "G2 cells, % of GMNN control": 2.73}
{"gene": "PCGF6", "reagent": 2, "G2 robust z-score": -0.186, "G2 cells, % of GMNN control": 1.66}
{"gene": "PCGF6", "reagent": 3, "G2 robust z-score": 2.63, "G2 cells, % of GMNN control": 21.5}
{"gene": "HEATR6", "reagent": 1, "G2 robust z-score": -0.197, "G2 cells, % of GMNN control": 1.58}
{"gene": "HEATR6", "reagent": 2, "G2 robust z-score": -0.734, "G2 cells, % of GMNN control": -2.2}
{"gene": "HEATR6", "reagent": 3, "G2 robust z-score": -0.328, "G2 cells, % of GMNN control": 0.66}
{"gene": "CLPP", "reagent": 1, "G2 robust z-score": 0.137, "G2 cells, % of GMNN control": 3.93}
{"gene": "CLPP", "reagent": 2, "G2 robust z-score": -0.968, "G2 cells, % of GMNN control": -3.84}
{"gene": "CLPP", "reagent": 3, "G2 robust z-score": -0.975, "G2 cells, % of GMNN control": -3.9}
{"gene": "KCNE1", "reagent": 1, "G2 robust z-score": -0.749, "G2 cells, % of GMNN control": -2.3}
{"gene": "KCNE1", "reagent": 2, "G2 robust z-score": 0.318, "G2 cells, % of GMNN control": 5.21}
{"gene": "KCNE1", "reagent": 3, "G2 robust z-score": 0.716, "G2 cells, % of GMNN control": 8.01}
{"gene": "TCP10L", "reagent": 1, "G2 robust z-score": -1.12, "G2 cells, % of GMNN control": -4.92}
{"gene": "TCP10L", "reagent": 2, "G2 robust z-score": -0.455, "G2 cells, % of GMNN control": -0.236}
{"gene": "TCP10L", "reagent": 3, "G2 robust z-score": -0.777, "G2 cells, % of GMNN control": -2.5}

Entries above whose gene name begins with L or l (3):
{"gene": "LOC728667", "reagent": 1, "G2 robust z-score": 0.176, "G2 cells, % of GMNN control": 4.2}
{"gene": "LOC728667", "reagent": 2, "G2 robust z-score": -0.445, "G2 cells, % of GMNN control": -0.161}
{"gene": "LOC728667", "reagent": 3, "G2 robust z-score": -1.03, "G2 cells, % of GMNN control": -4.25}
